Measurements from paper doi:10.1101/2023.11.07.565989.
No constants are given. Whether binding was seen depends on the method and setting. Some binding calls cover weakened binding; strength is not graded here.

The chains behind the UniProt entries cited, without tags or fusion partners. Residues count along the entry.
UniProt Q96CB9, residues 26-384: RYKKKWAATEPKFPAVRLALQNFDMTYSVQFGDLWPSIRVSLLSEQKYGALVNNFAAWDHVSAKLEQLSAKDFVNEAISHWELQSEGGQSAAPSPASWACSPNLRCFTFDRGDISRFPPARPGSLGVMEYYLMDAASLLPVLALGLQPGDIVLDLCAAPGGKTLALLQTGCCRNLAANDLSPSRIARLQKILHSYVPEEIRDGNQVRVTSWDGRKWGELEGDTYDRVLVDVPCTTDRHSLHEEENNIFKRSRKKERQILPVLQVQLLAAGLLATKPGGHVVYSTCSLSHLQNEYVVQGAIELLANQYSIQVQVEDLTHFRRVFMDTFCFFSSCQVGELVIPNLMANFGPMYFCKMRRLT

Biological target: T1, RNA-binding protein MTERF4 (human (endogenous in HEK293-6E)) (UniProt Q7Z6M4)
T1 sequence: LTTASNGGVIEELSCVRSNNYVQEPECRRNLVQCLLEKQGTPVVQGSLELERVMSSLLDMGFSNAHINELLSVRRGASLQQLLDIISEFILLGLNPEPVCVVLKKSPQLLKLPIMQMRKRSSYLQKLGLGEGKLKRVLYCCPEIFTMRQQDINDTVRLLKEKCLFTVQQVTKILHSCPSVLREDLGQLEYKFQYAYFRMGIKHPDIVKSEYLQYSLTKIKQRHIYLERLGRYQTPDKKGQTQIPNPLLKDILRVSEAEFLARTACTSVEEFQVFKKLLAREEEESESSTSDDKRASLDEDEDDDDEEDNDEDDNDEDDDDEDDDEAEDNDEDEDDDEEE
Assay: cryo-EM structure

binding: binds
Substance: methyltransferase NSUN4 (from UniProt Q96CB9 26-384)
